Assay results reported in patent EP0293158A2, “Parathyroid hormone antagonists” (Merck & Co., Inc., priority 1987, dated 1988).
Part of at least one peptide drawing is inferred or uncertain, most often the ends.

Columns and labels:
PTH = test: inhibition of PTH in vivo; details: general statement, no method or data given
peptide hormone receptor = test: agonist activity (stimulation of second messenger molecules); details: general statement, no method or data given

CSCC[C@H](NC(=O)[C@H](CO)NC(=O)[C@H](CC(N)=O)NC(=O)[C@H](CC(C)C)NC(=O)[C@H](Cc1c[nH]cn1)NC(=O)[C@H](CCCCN)NC(=O)C(C)(C)NC(=O)[C@H](CC(C)C)NC(=O)[C@H](CC(N)=O)NC(=O)[C@H](Cc1c[nH]cn1)NC(=O)[C@H](CCSC)NC(=O)[C@@H](N)CC(C)C)C(=O)N[C@@H](CCC(=O)O)C(=O)N[C@@H](CCCNC(=N)N)C(=O)N[C@H](C(=O)N[C@@H](CCC(=O)O)C(=O)N[C@@H](Cc1c[nH]c2ccccc12)C(=O)N[C@@H](CC(C)C)C(=O)N[C@@H](CCCNC(=N)N)C(=O)N[C@@H](CCCCN)C(=O)N[C@@H](CCCCN)C(=O)N[C@@H](CC(C)C)C(=O)N[C@@H](CCC(N)=O)C(=O)N[C@@H](CC(=O)O)C(=O)N[C@H](C(=O)N[C@@H](Cc1c[nH]cn1)C(=O)N[C@@H](CC(N)=O)C(=O)N[C@@H](Cc1ccc(O)cc1)C(N)=O)C(C)C)C(C)C [[Aib¹², Tyr³⁴]hPTH(7-34)NH₂ amide]
inhibition of PTH in vivo (PTH): inhibits PTH in vivo
agonist activity (peptide hormone receptor): does not act as an agonist
